Reference: PMC6981194

Amino acid sequences for entries named in this document (tags omitted). A change or cut given only in a name is not applied to a line headed by its entry.
UniProt Q6NXK8: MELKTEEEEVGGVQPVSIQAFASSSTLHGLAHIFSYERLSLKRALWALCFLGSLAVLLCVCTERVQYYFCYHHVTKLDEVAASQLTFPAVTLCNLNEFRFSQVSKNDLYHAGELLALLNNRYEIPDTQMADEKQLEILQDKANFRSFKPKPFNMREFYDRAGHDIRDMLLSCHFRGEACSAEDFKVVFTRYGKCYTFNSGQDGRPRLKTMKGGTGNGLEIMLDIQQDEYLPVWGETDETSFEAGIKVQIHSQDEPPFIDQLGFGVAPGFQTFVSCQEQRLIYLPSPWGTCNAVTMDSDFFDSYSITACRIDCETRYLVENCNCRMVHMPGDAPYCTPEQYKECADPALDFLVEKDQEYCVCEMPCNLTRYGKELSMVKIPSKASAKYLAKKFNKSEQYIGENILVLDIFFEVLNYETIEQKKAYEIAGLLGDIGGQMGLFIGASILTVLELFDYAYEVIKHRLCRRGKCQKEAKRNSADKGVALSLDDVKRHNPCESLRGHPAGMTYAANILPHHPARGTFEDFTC
UniProt P18708: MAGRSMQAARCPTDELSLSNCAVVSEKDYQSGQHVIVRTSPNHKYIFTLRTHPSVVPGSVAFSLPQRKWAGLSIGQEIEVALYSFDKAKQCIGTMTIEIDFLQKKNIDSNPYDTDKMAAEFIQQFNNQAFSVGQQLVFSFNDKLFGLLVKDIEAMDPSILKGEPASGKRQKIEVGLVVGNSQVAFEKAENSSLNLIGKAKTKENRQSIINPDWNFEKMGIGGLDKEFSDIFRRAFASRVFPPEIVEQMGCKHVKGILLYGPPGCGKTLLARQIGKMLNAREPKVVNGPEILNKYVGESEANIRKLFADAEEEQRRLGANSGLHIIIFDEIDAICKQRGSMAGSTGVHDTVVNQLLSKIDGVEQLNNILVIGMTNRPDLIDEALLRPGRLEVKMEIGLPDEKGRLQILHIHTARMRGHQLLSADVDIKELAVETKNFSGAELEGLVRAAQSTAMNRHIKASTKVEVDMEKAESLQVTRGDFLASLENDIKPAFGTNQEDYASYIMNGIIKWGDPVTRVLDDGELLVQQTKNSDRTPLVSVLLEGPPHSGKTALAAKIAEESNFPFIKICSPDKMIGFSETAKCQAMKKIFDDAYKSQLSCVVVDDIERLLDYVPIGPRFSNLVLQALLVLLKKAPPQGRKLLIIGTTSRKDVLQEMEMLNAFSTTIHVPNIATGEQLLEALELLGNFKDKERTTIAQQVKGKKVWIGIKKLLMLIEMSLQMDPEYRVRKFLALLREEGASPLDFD
UniProt A0A8C2QHS8: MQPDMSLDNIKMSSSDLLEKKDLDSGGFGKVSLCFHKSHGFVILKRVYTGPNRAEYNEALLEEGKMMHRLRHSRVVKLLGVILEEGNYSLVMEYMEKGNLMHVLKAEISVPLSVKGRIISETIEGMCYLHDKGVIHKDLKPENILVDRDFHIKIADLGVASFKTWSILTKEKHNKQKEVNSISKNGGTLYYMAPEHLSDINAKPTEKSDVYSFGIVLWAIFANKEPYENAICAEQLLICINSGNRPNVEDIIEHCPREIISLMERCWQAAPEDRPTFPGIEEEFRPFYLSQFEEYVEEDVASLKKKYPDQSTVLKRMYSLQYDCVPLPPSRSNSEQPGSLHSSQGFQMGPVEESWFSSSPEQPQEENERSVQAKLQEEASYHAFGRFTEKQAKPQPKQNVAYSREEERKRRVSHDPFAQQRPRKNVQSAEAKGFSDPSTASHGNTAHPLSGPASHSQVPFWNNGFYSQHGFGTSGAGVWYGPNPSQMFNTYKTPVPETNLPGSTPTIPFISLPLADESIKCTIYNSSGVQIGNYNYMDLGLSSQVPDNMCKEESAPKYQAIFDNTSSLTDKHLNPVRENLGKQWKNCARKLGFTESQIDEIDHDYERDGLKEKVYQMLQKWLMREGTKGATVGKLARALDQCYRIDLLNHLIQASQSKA

Biological target: ASIC1a E/A mutant (all four glutamates E6EEE9 mutated into alanines) (not stated (human or mouse cDNA cloned)) (UniProt Q6NXK8)
Experiment: co-IP; lysates of transfected CHO cells exposed to pH 7.4 or pH 6.0; anti-ASIC1a antibody, Protein G agarose, 4 °C; lysis buffer 20 mM Tris-Cl pH 7.4, 150 mM NaCl, 1% Triton X-100; blots for RIPK1 and NSF

Substance: N-ethylmaleimide-sensitive fusion ATPase (NSF) in CHO cells (from UniProt P18708 1-744)
- binding: binds

Substance: receptor-interacting serine/threonine-protein kinase 1 (RIPK1) in CHO cells (from UniProt A0A8C2QHS8 1-659)
- binding: binds

These are yes or no findings as the source states them, for the method shown. Binding seen in cells or lysates may run through a third protein. Binding can be weak; no strength is given.
